Source: PubChem BioAssay AID1259415 (National Center for Advancing Translational Sciences (NCATS), 2018)
In all, about 410,000 compounds went through this assay and about 18,000 (4.4%) were called active. The shares of active, inactive and inconclusive entries below differ from those in the screen. No stated cut-off is given here; in the data, active means activity change below about -60%; inconclusive means no clear call, values can overlap the other calls; inactive means above about -39%.
On the % scale 0 is the no-effect control and ±100 the full control effect.

Assay: qHTS Assay for inhibitors of the human cytomegalovirus (HCMV)
Details: HFF cells, HCMV-luciferase reporter, 72 h; at 57.5 µM; hits give low values
In short: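 Luciferase read-out from HCMV-luciferase-infected HFFs (MOI 1 PFU/cell) 72 h post infection at 37C; compounds added after 16 h cell attachment; activity normalized between buffer-only basal and Salinomycin (10uM) inhibitor controls.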
With `C=CCNc1nc(N)c([N+](=O)[O-])c(Nc2ccccc2OC)n1` the activity change, negative = inhibition was inactive: 5.45%. In the case of `CC(C)CCC(O)(c1ccccc1)C(CN1CCOCC1)c1ccccc1` (centres undefined), the activity change, negative = inhibition is reported as active: -66.7%. In the case of `O=C(NC1CC1)C1=C[C@H](c2coc3ccccc3c2=O)C[C@H](OCCCCO)O1`, the activity change, negative = inhibition is reported as inconclusive: -40.6%. With `CC1CCCCN1Cc1c(O)ccc2c(=O)c(-c3ccc(Br)cc3)coc12` (centres undefined) the activity change, negative = inhibition was inconclusive: -47.3%. For `COCc1c(C(=O)OC/C(O)=C(\C#N)c2nc3ccccc3[nH]2)oc2ccccc12`, the activity change, negative = inhibition was inactive: -4.4%. In the case of `CCCC(=O)Nc1cc(C(=O)O)ccc1Sc1ccccc1`, the activity change, negative = inhibition is reported as inconclusive: -51.8%. With `CCc1c(C)sc(NC(=O)c2noc(C)c2[N+](=O)[O-])c1C#N` the activity change, negative = inhibition was inconclusive: -42.2%. In the case of `c1ccc(N2CCN(c3ccccc3)C2c2cccnc2)cc1`, the activity change, negative = inhibition is reported as inactive: -20.6%. For `Cc1c(C)n2c(SCC(=O)NC3CCCC3)nnc2[nH]c1=O`, the activity change, negative = inhibition was inconclusive: -41.9%. In the case of `S=C(c1ccccc1)N1CCN(c2ccccc2)CC1`, the activity change, negative = inhibition is reported as inconclusive: -43.1%. In the case of `Cc1ccc(C2(C)NC(=O)N(CC(=O)Nc3nc(-c4ccccn4)cs3)C2=O)cc1` (centres undefined), the activity change, negative = inhibition is reported as inactive: -36.5%. With `Cc1ccc(C(NC(=O)Nc2ccccn2)C(Cl)(Cl)Cl)cc1F` (centres undefined) the activity change, negative = inhibition was inconclusive: -46.2%. For `O=c1c2ccccc2nc2c3ccccc3c3nncn3n12`, the activity change, negative = inhibition was inconclusive: -40.2%. With `CN(C)P(=NC(=O)COc1ccc(Cl)cc1Cl)(N(C)C)N(C)C` the activity change, negative = inhibition was inconclusive: -42.6%. With `Cc1ccc(NC(=O)C2CCCN(c3nnc(C)c4c(C)n(-c5ccccc5)nc34)C2)c(Cl)c1` (centres undefined) the activity change, negative = inhibition was inconclusive: -45.9%. In the case of `Cc1ccccc1NC(=O)C1c2cccc[n+]2CC(=O)N1Cc1ccc2c(c1)OCO2` (centres undefined), the activity change, negative = inhibition is reported as inconclusive: -56.3%. In the case of `CCOc1ccccc1NC(=S)NC1CCCCC1`, the activity change, negative = inhibition is reported as inconclusive: -50.8%. In the case of `COc1ccc(CNC(=O)C2=CCN(S(=O)(=O)c3ccc(C)cc3)CC2)cc1`, the activity change, negative = inhibition is reported as inconclusive: -41.6%. For `c1ccc(CNCCCNCCCCNCCCNCc2ccccc2)cc1`, the activity change, negative = inhibition was active: -97.3%. In the case of `CC(=O)c1cccc(NC(=O)/C=C/c2ccc([N+](=O)[O-])s2)c1`, the activity change, negative = inhibition is reported as active: -95.9%. With `COc1ccc(NC(=O)c2cc3c(-c4ccc(OC)c(OC)c4)nn(C)c3s2)cc1OC` the activity change, negative = inhibition was active: -96.6%. In the case of `Cc1oc2ccc(OC(C(=O)O)c3ccccc3)cc2c1C(=O)O` (centres undefined), the activity change, negative = inhibition is reported as inactive: -4.6%. For `Cc1noc(C)c1COc1ccccc1C(=O)NCCc1ccc(F)cc1`, the activity change, negative = inhibition was inactive: 5.77%. In the case of `CCCOc1ccccc1C1CC(=O)Nc2cc3c(cc21)OCO3` (centres undefined), the activity change, negative = inhibition is reported as active: -61.8%. In the case of `CC(C)C(C)NC(=O)COC(=O)/C=C/c1ccc(S(=O)(=O)N2CCc3ccccc32)cc1` (centres undefined), the activity change, negative = inhibition is reported as inactive: -7.6%. In the case of `COc1ccc(/C=N/NC(=O)c2cccnc2)cc1CSc1ccccn1`, the activity change, negative = inhibition is reported as inconclusive: -46.7%. With `COc1ccccc1N1CCN(C2CC(=O)N(c3ccc(Cl)cc3)C2=O)CC1` (centres undefined) the activity change, negative = inhibition was inactive: 34.4%. In the case of `C/C(=N/NC(=O)c1ccccc1)C1=C(O)CC(C)(C)CC1=O`, the activity change, negative = inhibition is reported as inactive: 20%. In the case of `Cc1cc(C(=O)NCc2cc(C)n(C)n2)sc1-c1ccccc1`, the activity change, negative = inhibition is reported as active: -82.6%. In the case of `COc1ccc(OC)c(N2C(=O)CC(NNC(=O)c3ccc4c(c3)OCO4)C2=O)c1` (centres undefined), the activity change, negative = inhibition is reported as inactive: -21.6%. For `COc1ccc(/C=N/NC(N)=S)cc1OC(=O)c1ccccc1`, the activity change, negative = inhibition was inactive: 7.62%. With `CCOC(=O)c1ccc(NC(=O)Cn2c(=O)n(-c3ccc(C)cc3)c(=O)c3c2cnn3C)cc1` the activity change, negative = inhibition was inactive: 2.83%. For `O=C(NC1CC1)C1CCN(S(=O)(=O)c2cc(Cl)ccc2Cl)CC1`, the activity change, negative = inhibition was inconclusive: -40.1%. With `CCC1CN2CCc3cc(OC)c(OC)cc3C2CC1CC1NCCc2c1[nH]c1ccc(O)cc21` (centres undefined) the activity change, negative = inhibition was active: -98.9%. For `O=C(c1ccccc1)c1cccc(NC(=O)c2ccc(Br)o2)c1`, the activity change, negative = inhibition was inconclusive: -42.8%. In the case of `S=C(NC1CCCCC1)N1CCOCCOCCN(C(=S)NC2CCCCC2)CCOCC1`, the activity change, negative = inhibition is reported as inconclusive: -52.2%. For `O=C(Cn1cc(C(=O)c2ccco2)c2ccccc21)Nc1ccccc1F`, the activity change, negative = inhibition was active: -74.7%. For `CCS(=O)(=O)N1CCC(C(=O)NCc2cccnc2)CC1`, the activity change, negative = inhibition was inconclusive: -50.3%. With `COc1ccc(-c2coc3cc4oc(=O)cc(-c5ccccc5)c4cc23)cc1F` the activity change, negative = inhibition was inconclusive: -48.5%. With `C=CCC(O)(CCN1CCCCC1)c1ccccc1` (centres undefined) the activity change, negative = inhibition was inactive: 6.24%. For `CC1(C)SC2C(C(=O)O)N=C(Cc3ccccc3)N2C1C(=O)O` (centres undefined), the activity change, negative = inhibition was inactive: 4.4%. For `Cc1ccc(C(=O)Nc2ccc(N3CCCCC3)cc2)cc1`, the activity change, negative = inhibition was inactive: 37.5%. For `CCN(CC)C(=O)C[n+]1cccc(/C=N/O)c1`, the activity change, negative = inhibition was inconclusive: -43.4%. In the case of `Cn1cnnc1SCC(=O)N1CCc2ccccc21`, the activity change, negative = inhibition is reported as inconclusive: -48.9%. In the case of `O=C(N/N=C/c1ccco1)C1CC1(c1ccccc1)c1ccccc1` (centres undefined), the activity change, negative = inhibition is reported as inconclusive: -57.1%. In the case of `CC1CCCC(C)N1S(=O)(=O)c1ccc(NC(=O)CCN2C(=O)C3CC=CCC3C2=O)cc1` (centres undefined), the activity change, negative = inhibition is reported as inconclusive: -49.6%. With `Cc1cc(C)n2cc(CSc3nnnn3-c3ccccc3)nc2n1` the activity change, negative = inhibition was active: -70.9%. With `Cc1csc(NC(=O)c2cc3c(s2)CCCC3)n1` the activity change, negative = inhibition was inactive: 24.5%. With `Oc1ccc(/C=N/Nc2ccnc3cc(Cl)ccc23)cc1O` the activity change, negative = inhibition was active: -60.2%. With `CNC(=S)NNC(=O)c1cc(-c2cccnc2)nc2ccccc12` the activity change, negative = inhibition was inactive: 14.6%. With `Cc1ccc(C(=O)Nc2ccc3c(c2)OCCO3)c(C)c1` the activity change, negative = inhibition was inconclusive: -56%. In the case of `Cc1cccc(N(C(=O)CNC(=O)c2ccco2)C(C(=O)NCC2CCCO2)c2ccccc2)c1` (centres undefined), the activity change, negative = inhibition is reported as inactive: -7.32%. For `CC(=O)NCC1CCCN(C(=O)c2oc3c(F)cccc3c2C)C1` (centres undefined), the activity change, negative = inhibition was active: -101%. For `CCCSc1nc2sc3c(c2c(=O)n1-c1ccc(OC)cc1)CCN(C)C3`, the activity change, negative = inhibition was inconclusive: -48.1%. With `COc1cccc(-c2nnc3sc(C4CCCCC4)nn23)c1` the activity change, negative = inhibition was active: -83.8%. With `CCCCCCCc1c(C#N)c(N)[nH]c(=S)c1C#N` the activity change, negative = inhibition was inconclusive: -40.3%. For `O=Cc1c(NC2CCCCC2)c2ccccc2[nH]c1=O`, the activity change, negative = inhibition was inactive: -11.1%. With `O=C1CN(S(=O)(=O)c2ccc(Cl)cc2C(F)(F)F)CCN1` the activity change, negative = inhibition was active: -60.3%. For `O=c1[nH]c2ccccc2n1C1CCN(Cc2ccc(-c3nc4ccccc4nc3-c3ccccc3)cc2)CC1`, the activity change, negative = inhibition was inconclusive: -52.8%. With `COc1ccc(NC(=O)C2CSC(C)(C)N2C=O)cc1` (centres undefined) the activity change, negative = inhibition was inconclusive: -40.8%. With `CC(C)(C)c1ccc(S(=O)(=O)NCc2ccc3c(c2)CCN3C(=O)c2ccccc2)cc1` the activity change, negative = inhibition was inconclusive: -59.2%. For `Cc1onc(C(=O)N2C(C)CCCC2C)c1[N+](=O)[O-]` (centres undefined), the activity change, negative = inhibition was inconclusive: -47.5%. In the case of `O=C(NCCCN1CCOCC1)c1cc(-c2ccco2)nc2ccccc12`, the activity change, negative = inhibition is reported as inactive: 0%. With `Cc1ccc(C)c(S(=O)(=O)N2CCN(CC(=O)Nc3ccc4c(c3)CCC4)CC2)c1` the activity change, negative = inhibition was inconclusive: -48.5%. With `COc1ccc(C(=O)N/N=C(\C)CC(=O)Nc2ccc(N(C)C)cc2)c(OC)c1` the activity change, negative = inhibition was inactive: -16.8%. With `O=C(CCCN1C(=O)/C(=C/c2ccccc2Cl)SC1=S)NNC(=O)c1ccncc1` the activity change, negative = inhibition was inconclusive: -42.3%. In the case of `OC[C@@H]1CN(Cc2ccc(-c3ccccc3)cc2)C[C@H](n2cnc3c(NCc4ccc(F)cc4)ncnc32)O1`, the activity change, negative = inhibition is reported as active: -84.7%. For `Cc1cc(S(=O)(=O)NCC(c2ccc3c(c2)OCO3)N2CCOCC2)ccc1F` (centres undefined), the activity change, negative = inhibition was active: -63.7%. With `CC(=O)c1c(N2CCN(Cc3ccccc3)CC2)nc(=S)n(Cc2ccccc2)c1C` the activity change, negative = inhibition was inconclusive: -48.2%. In the case of `CSc1ccc(/C=N\NC(=O)CC(=O)NC(C)C)cc1`, the activity change, negative = inhibition is reported as inconclusive: -41.1%. For `O=c1[nH]c(NNC(=S)NC2CCCCC2)nc2c1C1(CCCC1)Cc1ccccc1-2`, the activity change, negative = inhibition was inactive: 26%. With `Cc1nc2ccc(NC(=O)Cc3cccs3)cc2s1` the activity change, negative = inhibition was inactive: 63.9%. In the case of `COc1ccc(OC)c(C(c2nnnn2C2CCCC2)N2CCc3ccccc3C2)c1` (centres undefined), the activity change, negative = inhibition is reported as inactive: -9.52%. In the case of `CC(C)COc1ccc(C(=O)Nc2scc(-c3ccc(Cl)cc3Cl)c2C(N)=O)cc1`, the activity change, negative = inhibition is reported as inconclusive: -50.1%. With `CC(C)N1C(=O)c2ccccc2NC(=O)C1C(=O)NCc1ccccc1` (centres undefined) the activity change, negative = inhibition was inactive: 18%. For `Cc1c(NC(=O)CSc2nncc3ccccc23)c(=O)n(-c2ccccc2)n1C`, the activity change, negative = inhibition was inconclusive: -59.4%. In the case of `Cc1ccc(OCC(=O)OCC(=O)NC2CCS(=O)(=O)C2)cc1C` (centres undefined), the activity change, negative = inhibition is reported as inconclusive: -49.6%. With `Cc1ccnc2nc(C(=O)OC(C)C(=O)NCc3ccccc3)nn12` (centres undefined) the activity change, negative = inhibition was inactive: 27.2%. With `O=[N+]([O-])c1ccc(CSc2nnc(-c3cnccn3)o2)cc1` the activity change, negative = inhibition was inconclusive: -43.6%. In the case of `Cc1ccc(C)c(S(=O)(=O)N2CCCC2CNC(=O)C(=O)NCc2cccs2)c1` (centres undefined), the activity change, negative = inhibition is reported as inconclusive: -47%. With `O=[N+]([O-])c1cccc(CNC2CCCCCC2)c1` the activity change, negative = inhibition was inactive: -30.8%. In the case of `O=C(CNC(=O)c1cccc(Br)c1)N/N=C/c1cccnc1`, the activity change, negative = inhibition is reported as inconclusive: -46.3%. In the case of `CN1CCN(c2ccc([N+](=O)[O-])c(N3CCCCC3)c2)CC1`, the activity change, negative = inhibition is reported as inconclusive: -46.2%. In the case of `Cc1cc2nc(/C=C/c3cccnc3)[nH]c2cc1C`, the activity change, negative = inhibition is reported as active: -92.2%. With `CCc1c(C(=O)NC2CCCc3ccccc32)[nH]c(C)c1C(C)=O` (centres undefined) the activity change, negative = inhibition was active: -83.4%. In the case of `O=C(CSc1ncnc2[nH]ncc12)Nc1nc(-c2ccc(F)c(F)c2)cs1`, the activity change, negative = inhibition is reported as active: -90.4%. For `C[C@]12CC(O)C3C(CCC4=CC(=O)CC[C@@]43C)C1CCC2c1csc(-c2ccccc2)n1` (some centres undefined), the activity change, negative = inhibition was active: -75.8%. In the case of `O=C(Nc1ccc(S(=O)(=O)NC2CCCCC2)cc1)c1ccc(Br)o1`, the activity change, negative = inhibition is reported as inconclusive: -48.8%. For `O=C(CSc1nnc(Cn2nnc3ccccc32)o1)N(Cc1ccc(F)cc1)c1ccccc1`, the activity change, negative = inhibition was active: -99.8%.
